Results reported in PubChem BioAssay AID624404 (Broad Institute, 2012).
Among all 1,800 compounds or so, about 710 (39%) were called active. This list was built around the results that the source calls inconclusive (neither active nor inactive); the mix of calls is not that of the screen.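 The calls were made as follows: active = luciferase signal rise whose fitted curve crosses a set activity limit at or below the top valid tested dose; inconclusive = flat fit with 30 to 70% rise, or poor fit; inactive = signal falling, flat within 30%, or crossing above top dose.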

assay: luciferase activators in glycosylation-insensitive reporter cells, dose response, counter-screen for N-linked glycosylation inhibitor project, D54 LucT cells, luminescence, cherry pick (AID 624404); conditions: D54 LucT luciferase reporter counterscreen, 24 h; at 19.5 µM (top of the series) unless noted;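 also: 0% = median neutral control signal and 100% = twice that signal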

Compound	activity increase (luciferase signal)
CC(=O)c1cccc(-c2ccnc3c2CC(C(=O)NCc2ccc(F)c(F)c2)O3)c1 (centres undefined)	inconclusive: 50%
O=C(N/N=C/c1c[nH]c2ccccc12)C1COc2ccccc2O1 (centres undefined)	inconclusive: 47.1%
Cc1cccc2c(N)c3c(nc12)N(C)CC3	inactive: 12.8%
CNc1ccc(Br)cc(C(=O)/C=C/c2cccc(OC)c2OC)c1=O	inactive: 17.9%
CC(=O)c1ccc(Nc2c3c(nc4ccccc24)CCCC3)cc1	inactive: 32.1%
Cc1ccc(C(=O)c2cc([N+](=O)[O-])ccc2N2CCOCC2)cc1C	inconclusive: 11.9%
c1ccc2[nH]c3cc4ncnc4cc3nc2c1	inconclusive: 11.1%
Cc1ccc(C(c2cc(Cl)c3cccnc3c2O)N2CCN(C)CC2)cc1 (centres undefined)	inactive: -2.86%
Cc1nc2c3cc(Cl)ccc3n(CCN3CCCCC3)c2s1	inconclusive: 36%
c1ccc(-c2nc(-n3ccnc3)nc(-n3ccnc3)n2)cc1	inconclusive: 52%
CCCCCCCCCCCCCCCCCCNc1ccn(C2OC(COP(=O)(O)OCC3OC(n4cc(F)c(=O)[nH]c4=O)CC3O)C(O)C2O)c(=O)n1 (centres undefined)	inconclusive: 39.6%
N#Cc1c(NCCN)nc(-c2ccco2)c2c1CCCC2	inconclusive: 6.75%
O=C(N/N=C/c1ccc2c(c1)OCO2)c1sc2cc(Cl)ccc2c1Cl	inactive: 47.7%
O=C(CSc1c2c(nc3ccc(Cl)cc13)CCCC2)N1CCN(C(=O)c2ccco2)CC1	inactive: 7.36%
C#CC(=O)CC1(CN(Cc2ccccc2)C(=O)OC(C)(C)C)CCCCC1	inactive: 38.3%
O=C(NCCc1ccccc1)c1coc(=O)c(Br)c1	inconclusive: 128%
CCn1c2ccccc2c2cc(NC(=O)COC(=O)Cc3cn4ccsc4n3)ccc21	inconclusive: 88.8%
COC(=O)c1ccccc1-c1ccc(C(c2c(C)[nH][nH]c2=O)c2c(C)[nH][nH]c2=O)o1	inactive: -10.3%
CCOC(=O)c1c(NC(=O)CN2C(=O)NC3(CCCCC3C)C2=O)sc(C)c1CC (centres undefined)	inconclusive: 9.26%
COc1ccc(C=CC(=O)c2c(OC)cc(OC)c(OC)c2O)cc1	inactive: -20.6%
COc1ccc(NS(=O)(=O)c2cc(NC(=O)c3nn(C)c(=O)c4ccccc34)ccc2OC)cc1	inconclusive: 43.9%
COc1cc(C(=O)c2cocc2C(=O)c2ccc3c(c2)OCO3)cc(OC)c1OC	inconclusive: 22.7%
CCOc1ccc(C(C)=O)cc1COc1cccnc1[N+](=O)[O-]	inconclusive: 46.5%
O=C1CC(c2ccccc2F)c2cc3c(cc2N1)CCC3 (centres undefined)	inactive: 32.1%

2 entries from above in another layout:
CCn1c2ccccc2c2cc(NC(=O)COC(=O)Cc3cn4ccsc4n3)ccc21
  activity increase (luciferase signal): inconclusive: 88.8%
COC(=O)c1ccccc1-c1ccc(C(c2c(C)[nH][nH]c2=O)c2c(C)[nH][nH]c2=O)o1
  activity increase (luciferase signal): inactive: -10.3%
